# Record: PubChem BioAssay AID1159578 (Peter MacCallum Cancer Centre, 2015)
# Test: 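Knock-downs that alter how fast lymphatic endothelial cells migrate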 (primary screen)
# System: human lymphatic endothelial cells
# Reagent: siRNA pool against human genes, 40 nM
# Time to read-out: 48 h after transfection
# Detection: 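Cells stained with dye and imaged after a scratch; covered wound area and nuclei counted, duplicates averaged, migration set against mock wells and turned into a robust z-score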
# Direction: migration robust z-score: higher = faster migration into the scratch; nuclei per well: higher = more cells in the well
# Call rule: 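Pools averaging fewer than 3300 nuclei are never called; remaining pools count as changed when migration robust z lies outside -2 to 2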
# Calls: active = migration changed; inactive = no migration change, or too few cells
# The whole screen tested about 18,000 reagents; below is a part drawn at random. In the full data, about 1,030 (5.7%) were called active. 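Inactive calls also include pools with fewer than 3300 nuclei, whose migration was not assessed.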 Raw values are not corrected between plates. Not all columns of the deposit are shown.
target gene,PubChem SID,migration robust z-score,"nuclei per well, duplicate mean",Outcome
MIOX,SID255358699,-0.26,5250,inactive
UBTFL7,SID255363960,0.68,5687,inactive
NME6,SID255354889,-0.16,4811,inactive
USP17L2,SID255365395,-0.57,5649,inactive
SIRAL1,SID255360326,-0.74,5346,inactive
APPBP2,SID255355140,-1.03,5062,inactive
TWIST1,SID255353009,-1.82,4336,inactive
SFXN3,SID255360966,1.52,4632,inactive
CLTA,SID255348970,0.6,4332,inactive
GABRA6,SID255349793,0.32,5608,inactive
PTX4,SID255365660,0.78,5214,inactive
SLC24A5,SID255364698,0.02,5580,inactive
RASSF5,SID255361032,-0.99,5428,inactive
SLC4A5,SID255359612,-1.19,6232,inactive
C1orf198,SID255361549,0.56,5366,inactive
ZNF655,SID255360171,-1.67,4346,inactive
VAMP4,SID255353729,-0.66,4975,inactive
ZFAND3,SID255359745,-0.62,4254,inactive
ABCB4,SID255351548,-1.27,6326,inactive
RND3,SID255348388,0.13,4722,inactive
NMT1,SID255351260,-0.02,8389,inactive
ANO9,SID255364986,0.86,6442,inactive
RAB24,SID255357950,0.52,5876,inactive
TRIT1,SID255358173,0.06,3335,inactive
AIDA,SID255360030,0.76,5354,inactive
EME2,SID255363992,1.37,6240,inactive
SIRT6,SID255357779,0.16,4914,inactive
POP4,SID255355343,0.08,8342,inactive
MVB12A,SID255362071,1.36,7240,inactive
MIS12,SID255360154,0.34,5836,inactive
RIMS4,SID255363131,-0.99,5108,inactive
OR1L3,SID255356844,1.07,5871,inactive
DDB2,SID255349260,1.03,6269,inactive
KCNMB3,SID255356914,-1.4,4013,inactive
PDK3,SID255351491,-1.74,3528,inactive
ANAPC7,SID255357715,2.01,5476,active
SLC17A5,SID255356791,0.34,6288,inactive
KRTAP5-2,SID255365882,0.45,6244,inactive
SAMD9L,SID255364153,-0.32,6565,inactive
DNAL4,SID255354828,-0.24,4216,inactive
SPRED3,SID255365713,1.31,5894,inactive
UBXN8,SID255353359,-0.32,5852,inactive
STRN3,SID255357251,0.26,5998,inactive
MMACHC,SID255356587,-1.92,4989,inactive
FRG2,SID255365988,-1.79,5484,inactive
MRPS15,SID255360059,0.17,5775,inactive
ART3,SID255348414,0.26,6294,inactive
CMA1,SID255348973,0.21,5539,inactive
MCM7,SID255350907,0.25,7192,inactive
HEY2,SID255356276,-0.16,6100,inactive
GIN1,SID255358192,-0.11,4515,inactive
OPRK1,SID255351355,0.46,5357,inactive
ONECUT2,SID255354310,-2.16,5156,active
PGLS,SID255356465,-0.86,5524,inactive
NFKB1,SID255351225,0.72,5904,inactive
OR8S1,SID255365124,0.52,6076,inactive
NECAB1,SID255359859,2.25,6512,active
IGSF8,SID255362065,0.48,6074,inactive
RPS16,SID255352227,-1.01,3774,inactive
LAPTM4B,SID255358626,1.17,5728,inactive
RALGDS,SID255352034,1.34,5434,inactive
F2,SID255349593,0.68,5400,inactive
HOXA10,SID255350265,-0.52,5441,inactive
LONP2,SID255361086,-1.3,4882,inactive
ZNF160,SID255361812,-1.12,5812,inactive
RABL2A,SID255355641,-0.21,5482,inactive
MMAA,SID255363844,-0.75,7341,inactive
SH3YL1,SID255356851,-1.46,5350,inactive
H3C14,SID255362732,0.22,5704,inactive
YIPF6,SID255364921,1.34,6823,inactive
CPZ,SID255353624,1.35,5014,inactive
TRIM47,SID255361886,-1.19,6454,inactive
MTHFS,SID255355205,0.83,4003,inactive
